These results are taken from article PMC8515607 (ACS Omega, 2021).

Type in all cases: cell-based
In one assay the test system is BALB/3T3. Nature of the assay: In vitro antiproliferative activity, SRB assay, normal fibroblasts BALB/3T3. The conditions noted are these: Mus musculus, normal murine embryonic fibroblasts, 72 h, mean ± SD. From the text: (§1) The A549 and MCF7 cell lines were purchased from the European Collection of Authenticated Cell Cultures (ECACC, Salisbury, U.K., 86012804 and 86012803). The LoVo cell line was purchased from the American Type Culture Collection (CCL-229, ATCC, Manassas, VA), and LoVo/DX by courtesy of Prof. E. Borowski (Technical University of Gdańsk, Gdańsk, Poland). The BALB/3T3 cell line was purchased from the American Type Culture Collection (CCL-163, ATCC, Manassas, VA). All of the cell lines are maintained in the Institute of Immunology and Experimental Therapy (IIET), Wroclaw, Poland. […]
(§2) After 72 h of incubation with the tested compounds, the cells were fixed in situ by gently adding cold 50% trichloroacetic acid (TCA) (POCh, Poland) and were incubated at room temperature for 1 h. […] Absorbance of each solution was read at Synergy H4 Hybrid Multi-Mode Microplate Reader (BioTek Instruments) at the 540 nm wavelength.
(§3) IC50 values were calculated in Excel sheet using formulas adapted by Mateusz Psurski fromCheburator 0.4, Dmitry Nevozhay software (version 1.2.0 software by Dmitry Nevozhay, 2004–2014, http://www.cheburator.nevozhay.com, freely available) for each experiment.[58] […]
Background: Sulforhodamine B stains cellular protein and so reports cell mass.

Another assay concerns MCF-7. Nature of the assay: cells. The conditions noted are these: Homo sapiens, MCF7, 72 h, read-out: MCF-7 IC50 (nM).
Description: as §1, §2, §3

The subject of the next assay is LoVo. Nature of the assay: cells. The conditions noted are these: Homo sapiens, 72 h, read-out: LoVo IC50 (nM).
Description: as §1, §2, §3

Turning to `COc1cc2c(c(OC)c1OC)-c1ccc(OC)c(=O)cc1[C@@H](NC(C)=O)CC2` [Compound 1, Colchicine, reference compound], the IC50 – broadly, the concentration that inhibits the measured activity by half – was determined as 44 ± 7 nM in the assay with BALB/3T3, 17 ± 1.3 nM in the assay on MCF-7 and 20 ± 4.7 nM in the assay with LoVo.
